# Results are given in words; binding and its absence hold for the method and conditions named. Binding seen in cells or lysates may run through a third protein. For part of these data: Binding calls can cover weak binding; strength is not graded here. For part of these data: Tags and fused reporters may be left off the sequences shown.
# Amino acid sequences for entries named in this document (tags omitted). A change or cut given only in a name is not applied to a line headed by its entry.
# UniProt Q9SP32: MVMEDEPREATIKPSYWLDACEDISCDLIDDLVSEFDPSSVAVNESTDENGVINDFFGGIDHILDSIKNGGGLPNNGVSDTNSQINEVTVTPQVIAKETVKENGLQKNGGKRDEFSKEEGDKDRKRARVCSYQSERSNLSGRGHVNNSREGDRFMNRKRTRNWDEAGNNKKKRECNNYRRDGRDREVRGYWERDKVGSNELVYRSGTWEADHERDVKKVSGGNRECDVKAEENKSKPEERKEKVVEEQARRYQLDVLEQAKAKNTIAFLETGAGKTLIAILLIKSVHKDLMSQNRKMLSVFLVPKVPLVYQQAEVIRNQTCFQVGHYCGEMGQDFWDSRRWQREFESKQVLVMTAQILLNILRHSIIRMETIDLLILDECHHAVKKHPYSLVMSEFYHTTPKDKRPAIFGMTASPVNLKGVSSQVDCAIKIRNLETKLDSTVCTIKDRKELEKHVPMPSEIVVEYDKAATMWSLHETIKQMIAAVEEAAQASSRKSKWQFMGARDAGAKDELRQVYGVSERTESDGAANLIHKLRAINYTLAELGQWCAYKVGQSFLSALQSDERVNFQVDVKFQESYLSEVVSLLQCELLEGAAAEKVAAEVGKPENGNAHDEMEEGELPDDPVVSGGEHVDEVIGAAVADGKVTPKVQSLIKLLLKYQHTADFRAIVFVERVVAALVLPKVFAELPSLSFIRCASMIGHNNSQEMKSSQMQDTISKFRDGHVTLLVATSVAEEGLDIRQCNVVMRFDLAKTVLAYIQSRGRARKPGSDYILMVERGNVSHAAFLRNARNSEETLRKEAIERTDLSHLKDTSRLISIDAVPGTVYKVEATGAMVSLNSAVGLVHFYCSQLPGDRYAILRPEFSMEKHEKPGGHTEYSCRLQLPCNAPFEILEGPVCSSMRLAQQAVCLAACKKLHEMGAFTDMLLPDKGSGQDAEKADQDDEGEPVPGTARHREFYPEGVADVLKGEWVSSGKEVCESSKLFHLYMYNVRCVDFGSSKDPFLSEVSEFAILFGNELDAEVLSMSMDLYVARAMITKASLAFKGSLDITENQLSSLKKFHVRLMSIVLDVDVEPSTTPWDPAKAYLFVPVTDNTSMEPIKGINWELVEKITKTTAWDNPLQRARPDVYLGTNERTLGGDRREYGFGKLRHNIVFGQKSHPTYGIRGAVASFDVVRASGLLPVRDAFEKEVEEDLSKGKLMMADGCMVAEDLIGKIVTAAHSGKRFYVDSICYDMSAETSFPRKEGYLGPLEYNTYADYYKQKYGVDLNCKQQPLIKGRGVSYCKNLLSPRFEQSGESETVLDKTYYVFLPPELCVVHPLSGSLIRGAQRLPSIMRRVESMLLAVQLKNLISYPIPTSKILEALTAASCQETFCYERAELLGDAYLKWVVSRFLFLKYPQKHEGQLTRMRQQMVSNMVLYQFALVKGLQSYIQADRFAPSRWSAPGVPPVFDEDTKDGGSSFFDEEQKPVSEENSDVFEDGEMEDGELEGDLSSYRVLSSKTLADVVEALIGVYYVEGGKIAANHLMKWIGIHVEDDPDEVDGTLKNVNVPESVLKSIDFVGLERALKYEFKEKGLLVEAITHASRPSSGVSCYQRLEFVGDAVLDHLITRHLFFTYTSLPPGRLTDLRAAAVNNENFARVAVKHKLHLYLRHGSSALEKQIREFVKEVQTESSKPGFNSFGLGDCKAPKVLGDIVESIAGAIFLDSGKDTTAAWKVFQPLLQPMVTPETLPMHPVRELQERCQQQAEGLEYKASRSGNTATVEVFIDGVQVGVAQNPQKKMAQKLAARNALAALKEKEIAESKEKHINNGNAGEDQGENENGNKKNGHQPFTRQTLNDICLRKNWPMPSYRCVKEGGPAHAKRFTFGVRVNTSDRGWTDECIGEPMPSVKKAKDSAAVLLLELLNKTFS
# UniProt Q80H97: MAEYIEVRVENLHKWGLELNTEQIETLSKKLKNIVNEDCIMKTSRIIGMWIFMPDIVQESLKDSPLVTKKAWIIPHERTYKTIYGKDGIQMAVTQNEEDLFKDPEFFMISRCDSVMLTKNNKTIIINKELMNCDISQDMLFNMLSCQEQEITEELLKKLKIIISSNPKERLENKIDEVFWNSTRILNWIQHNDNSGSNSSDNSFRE
# How the values were obtained:
# [1] = target: T1, AtHYL1 (as used in the co-IP with 24K:mRFP) (A. thaliana) (UniProt O04492); experiment: co-IP; transitory expression in N. benthamiana leaves; beads with anti-HYL1 antibody (control: beads without the antibody); blots with anti-RFP and anti-HYL1
# T1 sequence: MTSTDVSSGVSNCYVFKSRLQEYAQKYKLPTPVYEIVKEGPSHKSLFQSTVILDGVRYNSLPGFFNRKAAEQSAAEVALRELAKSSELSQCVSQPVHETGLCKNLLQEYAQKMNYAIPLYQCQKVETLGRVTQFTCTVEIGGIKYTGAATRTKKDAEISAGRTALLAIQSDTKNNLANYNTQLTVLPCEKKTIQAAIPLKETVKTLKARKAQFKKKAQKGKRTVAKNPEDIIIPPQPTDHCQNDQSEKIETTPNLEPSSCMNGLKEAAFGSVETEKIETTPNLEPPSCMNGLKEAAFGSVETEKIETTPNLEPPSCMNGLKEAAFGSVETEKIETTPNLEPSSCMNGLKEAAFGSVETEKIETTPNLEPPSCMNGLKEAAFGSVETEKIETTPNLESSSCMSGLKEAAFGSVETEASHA
# [2] = target: T2, AtSE:YFP (A. thaliana) (UniProt Q9ZVD0); experiment: co-IP; transient expression in N. benthamiana leaves; proteins extracted from enriched nuclei in RIPA buffer, sonicated; GFP-Trap overnight at 4°C; blots with anti-RFP and anti-GFP
# T2 sequence: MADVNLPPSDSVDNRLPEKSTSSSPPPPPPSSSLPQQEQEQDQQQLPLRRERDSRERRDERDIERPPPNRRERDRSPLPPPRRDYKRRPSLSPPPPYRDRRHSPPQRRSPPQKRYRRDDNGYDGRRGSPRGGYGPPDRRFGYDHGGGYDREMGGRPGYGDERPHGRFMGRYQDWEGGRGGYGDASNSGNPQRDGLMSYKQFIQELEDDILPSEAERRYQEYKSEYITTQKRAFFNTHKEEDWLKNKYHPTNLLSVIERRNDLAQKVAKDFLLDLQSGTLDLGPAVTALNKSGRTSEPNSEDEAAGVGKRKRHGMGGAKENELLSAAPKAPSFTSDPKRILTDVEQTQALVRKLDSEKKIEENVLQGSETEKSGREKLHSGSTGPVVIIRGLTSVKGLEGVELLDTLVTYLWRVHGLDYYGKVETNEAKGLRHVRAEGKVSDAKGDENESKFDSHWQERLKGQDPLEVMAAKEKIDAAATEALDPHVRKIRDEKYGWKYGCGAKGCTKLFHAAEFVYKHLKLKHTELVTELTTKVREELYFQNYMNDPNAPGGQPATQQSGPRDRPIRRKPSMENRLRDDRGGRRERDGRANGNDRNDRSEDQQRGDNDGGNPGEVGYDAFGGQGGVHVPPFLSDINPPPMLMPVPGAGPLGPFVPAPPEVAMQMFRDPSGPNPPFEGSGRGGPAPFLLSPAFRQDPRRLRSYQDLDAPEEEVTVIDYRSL
# [3] = target: CFP:AtDCL1 (A. thaliana) (UniProt Q9SP32); experiment: as above
# [4] = target: N-mCitrine:AtDCL1 (DICER-LIKE 1, BiFC fusion) (A. thaliana) (UniProt Q9SP32); experiment: split reporter; BiFC with N- and C-terminal regions of mCitrine; coagroinfiltration of N. benthamiana leaves with Fibrillarin-mRFP and p19; confocal microscopy of epidermal cells 3-4 days post-agroinfiltration
# [5] = target: T3, N-mCitrine:AtHYL1 (HYPONASTIC LEAVES 1, BiFC fusion) (A. thaliana) (UniProt O04492); experiment: as above
# T3 sequence: T1 sequence
# [6] = target: T4, N-mCitrine:AtSE (SERRATE, BiFC fusion) (A. thaliana) (UniProt Q9ZVD0); experiment: as above
# T4 sequence: T2 sequence
Substance,binding [1],binding [2],binding [3],binding [4],binding [5],binding [6]
24K:mRFP (from UniProt Q80H97),binds,binds,no binding,–,–,–
"C-mCitrine:24K (citrus psorosis virus 24K protein, BiFC fusion) (from UniProt Q80H97)",–,–,–,no binding,binds,binds

# From article PMC11218507
